At least one compound was matched to its structure with a doubt left.
System: B cells from CIA mice
Test: RT-PCR cytokine gene expression in cells purified from CIA mice
Format: cell-based
Conditions: digitoxin 33 nM or dexamethasone 2 mM, 45 minutes, FIG. 22

C[C@@H]1C[C@H]2[C@@H]3CCC4=CC(=O)C=C[C@]4(C)[C@@]3(F)[C@@H](O)C[C@]2(C)[C@@]1(O)C(=O)CO [dexamethasone]
IL-10 cytokine expression, comparison with corticosteroid: induce IL-10 cytokine | TGFβ cytokine expression, comparison with corticosteroid: not TGFβ cytokine expression
